{
  "source": "PubChem BioAssay AID256",
  "about": "(DTP/NCI, 2004)",
  "test_system": "CD2F1 mice, L1210 leukemia ip, survival T/C",
  "assay": "NCI In Vivo Anticancer Drug Screen. Data for tumor model L1210 Leukemia (intraperitoneal) in CD2F1 (CDF1) mice",
  "settings": "higher T/C = longer survival",
  "summary_of_the_method": "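Ratio T/C, where T is the treated-group value and C the vehicle-dosed control value, from mice implanted with a transplantable tumor.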",
  "key": {"[1]": {"settings": "T/C endpoint: mean survival time, dose: 400.0 mg/kg/injection, schedule: Q04DX003 (ip), vehicle: saline with Tween-80"}, "[2]": {"settings": "T/C endpoint: mean survival time, dose: 100.0 mg/kg/injection, schedule: Q04DX003 (ip), vehicle: saline with Tween-80"}, "[3]": {"settings": "T/C endpoint: mean survival time, dose: 400.0 mg/kg/injection, schedule: Q01DX001 (ip), vehicle: saline"}},
  "note": "The list is a part of this screen's results and no random one: it is rich in T/C values a quarter to a half above the control, in often repeated tests (any T/C) and in doses without a T/C. Further doses and runs are listed elsewhere. T/C gives the treated animals as a percentage of the vehicle group. Some doses have a count of surviving animals in place of a T/C: the source files T/C as zero there, which appears to mark a toxic dose or a test without result, not a measured value. Some doses without a T/C left all or most animals alive at the check, yet need not have been tolerated: the source hardly ever lists a survival T/C far under the control, and the zero likely stands for such cases as well. Counts of survivors are from the toxicity check (mostly the fifth day) where no day follows; animals may have died later. Schedule codes are those of the source, taken here to give the interval after Q, in days (D) or hours (H), and the number of doses after X. Additions like (4×) give the number of equal values in this list. For survival time, this PubChem deposit counts one and a half times the control or more as active, and values a quarter to a half above the control carry no call in these data; other NCI protocols may use other cut-offs. Some entries hold several experiments; their values stand side by side, smallest first.",
  "data": [
    {"smiles": "O=[N+]([O-])c1ccc(N/N=C/c2ccc(CO)cc2)c([N+](=O)[O-])c1", "values": [
      {"measurement": "survivor count", "setting": "T/C endpoint: mean survival time, dose: 100.0 mg/kg/injection, schedule: Q04DX003 (ip), vehicle: saline", "result": "6 of 6"}
    ]},
    {"smiles": "O=NN(CCCl)C(=S)NC1CCCCC1", "values": [
      {"measurement": "T/C", "setting": "T/C endpoint: mean survival time, dose: 6.25 mg/kg/injection, schedule: Q01DX001 (ip), vehicle: other", "result": "133 % of control"},
      {"measurement": "T/C", "setting": "T/C endpoint: mean survival time, dose: 12.5 mg/kg/injection, schedule: Q01DX001 (ip), vehicle: other", "result": "125 % of control"},
      {"measurement": "survivor count", "setting": "T/C endpoint: mean survival time, dose: 100.0 mg/kg/injection, schedule: Q01DX001 (ip), vehicle: other", "result": "6 of 6 (2×)"}
    ]},
    {"smiles": "Cc1ccn(C)c(=N)c1", "values": [
      {"measurement": "survivor count", "setting": "T/C endpoint: mean survival time, dose: 400.0 mg/kg/injection, schedule: Q01DX009 (ip), vehicle: saline sonified", "result": "2 of 6"}
    ]},
    {"smiles": "CN(C)N=Nc1c(F)c(F)cc(F)c1F", "values": [
      {"measurement": "T/C", "setting": "T/C endpoint: mean survival time, dose: 100.0 mg/kg/injection, schedule: Q01DX009 (ip), vehicle: saline with Tween-80", "result": "134 % of control"}
    ]},
    {"smiles": "Cc1ccc(C(C)C)c(OCC2=NCCN2C)c1", "values": [
      {"measurement": "survivor count", "setting": "T/C endpoint: mean survival time, dose: 400.0 mg/kg/injection, schedule: Q04DX003 (ip), vehicle: saline", "result": "1 of 6"}
    ]},
    {"smiles": "Cn1cnc([N+](=O)[O-])c1[Se]c1nc(N)nc2nc[nH]c12", "values": [
      {"measurement": "T/C", "setting": "T/C endpoint: mean survival time, dose: 11.0 mg/kg/injection, schedule: Q01DX005 (ip), vehicle: water", "result": "136 % of control"},
      {"measurement": "T/C", "setting": "T/C endpoint: mean survival time, dose: 12.5 mg/kg/injection, schedule: Q01DX009 (ip), vehicle: water", "result": "134 % of control"},
      {"measurement": "T/C", "setting": "T/C endpoint: mean survival time, dose: 16.5 mg/kg/injection, schedule: Q01DX005 (ip), vehicle: water", "result": "145 % of control"}
    ]},
    {"smiles": "O=C(NO)c1cccc(O)c1O", "values": [
      {"measurement": "T/C", "setting": "T/C endpoint: median survival time, dose: 89.78 mg/kg/injection, schedule: Q01DX009 (ip), vehicle: distilled water + Tween-80", "result": "125 % of control"},
      {"measurement": "T/C", "setting": "T/C endpoint: median survival time, dose: 134.0 mg/kg/injection, schedule: Q01DX009 (ip), vehicle: distilled water + Tween-80", "result": "127 and 140 % of control"},
      {"measurement": "T/C", "setting": "T/C endpoint: median survival time, dose: 200.0 mg/kg/injection, schedule: Q01DX009 (ip), vehicle: distilled water + Tween-80", "result": "144 % of control"},
      {"measurement": "survivor count", "setting": "T/C endpoint: median survival time, dose: 300.0 mg/kg/injection, schedule: Q01DX009 (ip), vehicle: distilled water + Tween-80", "result": "3 of 6"}
    ]},
    {"smiles": "CCCCCCCCCCCCCCCCCC[n+]1ccc(C(=O)c2ccccc2)cc1", "values": [
      {"measurement": "survivor count", "setting": "T/C endpoint: mean survival time, dose: 37.5 mg/kg/injection, schedule: Q01DX001 (ip), vehicle: other", "result": "3 of 6"}
    ]},
    {"smiles": "CCCCC(OC(=O)Nc1cccc2ccccc12)C(C)C", "note": "(centres undefined)", "values": [
      {"measurement": "survivor count", "setting": "[1]", "result": "6 of 6"}
    ]},
    {"smiles": "COc1cc2c(cc1OC)C(c1cc(OC)c(OC)c(OC)c1)=NCC2", "values": [
      {"measurement": "survivor count", "setting": "[2]", "result": "6 of 6"}
    ]},
    {"smiles": "[C-]#[N+]C(C)(CC)c1ccccc1", "note": "(centres undefined)", "values": [
      {"measurement": "survivor count", "setting": "T/C endpoint: mean survival time, dose: 55.0 mg/kg/injection, schedule: Q01DX009 (ip), vehicle: saline with Tween-80", "result": "1 of 6"},
      {"measurement": "survivor count", "setting": "T/C endpoint: mean survival time, dose: 80.0 mg/kg/injection, schedule: Q01DX009 (ip), vehicle: saline with Tween-80", "result": "0 of 6"}
    ]},
    {"smiles": "C[N+]12CCC34c5ccccc5NC3C3C(CC(=O)[O-])OCC=C(C1)C3CC42", "note": "(centres undefined)", "values": [
      {"measurement": "survivor count", "setting": "T/C endpoint: mean survival time, dose: 300.0 mg/kg/injection, schedule: Q01DX001 (ip), vehicle: other", "result": "1 of 6"}
    ]},
    {"smiles": "CC(=O)CC(O)(C(F)(F)F)C(F)(F)F", "values": [
      {"measurement": "survivor count", "setting": "[1]", "result": "1 of 6"}
    ]},
    {"smiles": "COc1ccc(CCNC2c3ccccc3C=Cc3ccccc32)cc1OC", "values": [
      {"measurement": "survivor count", "setting": "T/C endpoint: mean survival time, dose: 25.0 mg/kg/injection, schedule: Q01DX001 (ip), vehicle: saline with Tween-80", "result": "3 of 3"},
      {"measurement": "survivor count", "setting": "T/C endpoint: mean survival time, dose: 100.0 mg/kg/injection, schedule: Q01DX001 (ip), vehicle: saline with Tween-80", "result": "3 of 3"},
      {"measurement": "survivor count", "setting": "[3]", "result": "1 of 3"}
    ]},
    {"smiles": "COc1ccc2c(c1OC(C)=O)-c1cc(OC(C)=O)cc3c1C(C2)NCC3", "note": "(centres undefined)", "values": [
      {"measurement": "survivor count", "setting": "T/C endpoint: mean survival time, dose: 50.0 mg/kg/injection, schedule: Q04DX003 (ip), vehicle: saline with Tween-80", "result": "2 of 6"}
    ]},
    {"smiles": "CCCCCCCC(=O)Nc1ncnc2c1ncn2C1OC(COC(C)=O)C(OC(C)=O)C1OC(C)=O", "note": "(centres undefined)", "values": [
      {"measurement": "survivor count", "setting": "T/C endpoint: mean survival time, dose: 200.0 mg/kg/injection, schedule: Q01DX005 (ip), vehicle: distilled water + Tween-80", "result": "1 of 6"}
    ]},
    {"smiles": "COc1ccc(/C=C/C(CC(NO)c2ccc(OC)cc2)=N/O)cc1", "note": "(centres undefined)", "values": [
      {"measurement": "survivor count", "setting": "T/C endpoint: mean survival time, dose: 200.0 mg/kg/injection, schedule: Q01DX001 (ip), vehicle: saline with Tween-80", "result": "3 of 3"},
      {"measurement": "survivor count", "setting": "T/C endpoint: mean survival time, dose: 400.0 mg/kg/injection, schedule: Q01DX001 (ip), vehicle: saline with Tween-80", "result": "3 of 3"}
    ]},
    {"smiles": "CN(C)Cc1ccc2ccccc2c1", "values": [
      {"measurement": "survivor count", "setting": "T/C endpoint: mean survival time, dose: 200.0 mg/kg/injection, schedule: Q01DX001 (ip), vehicle: saline", "result": "1 of 6"},
      {"measurement": "survivor count", "setting": "[3]", "result": "0 of 6"}
    ]},
    {"smiles": "CN(C)c1ccc(/C=N/NC(=O)NN)cc1", "values": [
      {"measurement": "survivor count", "setting": "[2]", "result": "6 of 6"},
      {"measurement": "survivor count", "setting": "T/C endpoint: mean survival time, dose: 200.0 mg/kg/injection, schedule: Q04DX003 (ip), vehicle: saline with Tween-80", "result": "3 of 6"},
      {"measurement": "survivor count", "setting": "[1]", "result": "0 of 6"}
    ]},
    {"smiles": "ClCC(Cl)CN1CCCCC1", "note": "(centres undefined)", "values": [
      {"measurement": "survivor count", "setting": "T/C endpoint: mean survival time, dose: 100.0 mg/kg/injection, schedule: Q01DX009 (ip), vehicle: saline", "result": "0 of 6"}
    ]}
  ]
}
